Measured values taken from PubChem BioAssay AID602313 (National Center for Advancing Translational Sciences (NCATS), 2012).
Screen size: about 390,000 compounds; about 760 (0.19%) were called active. The shares of active, inactive and inconclusive entries below differ from those in the screen. Calls follow the shape of the dose curve; as a rule, active = well fitted inhibition curve with a large enough effect; inconclusive = small, poorly fitted or top-dose-only effect; inactive = flat fitted curve, though single readings scatter. Where the call is inconclusive, the potency comes from a doubtful curve fit.

Assay: qHTS for Inhibitors of Vif-A3F Interactions: qHTS; also: nearly all actives have a fitted effect of over 65% in size; as to activity, negative = active: % of control where 0% means no effect
Details: HeLa A3F-eYFP + Vif (tagged APOBEC3F with the HIV-1 protein that degrades it), YFP fluorescence increase; series mostly up to 46.1 µM; activity, negative = active: at the top concentration
In short: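 HeLa cells stably expressing Vif plus C-terminally eYFP-tagged A3F were seeded, incubated overnight at 37 deg C, dosed with compound, incubated overnight again at 37 deg C. Yellow fluorescence (Ex 488/Em 500-530) reported blocked Vif-mediated A3F-eYFP degradation.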
Potency is read from the fitted curve at half-maximal effect.

Question: For `Cc1ccc(CC2CC(=O)N(Cc3ccco3)C2=O)cc1` (centres undefined), which “activity, negative = active” value is on record?
Answer: The value was inactive: -9.63%.

Question: Which Potency does the source give for `Cn1c(N)c(C(=O)COC(=O)c2ccc([N+](=O)[O-])o2)c(=O)n(C)c1=O` here?
Answer: The Potency was inconclusive: 7.94 µM [inhibitor, partial curve, poor fit].

Question: With `COc1cc(/C=C2\C(=O)ON=C2c2ccccc2)cc(OC)c1OC` as the molecule, how does the “activity, negative = active” value read?
Answer: Its value is inactive: -18.8%.

Question: Which Potency does the source give for `Cc1ccc(C)c(Cn2nc3c4ccccc4n(Cc4ccccc4)cc-3c2=O)c1` here?
Answer: The Potency was inconclusive: 31.6 µM [inhibitor, partial curve, poor fit].

Question: For `C[n+]1cccc(C2C(C#N)=C(N)Oc3c2ccc2ccccc32)c1` (centres undefined), which “activity, negative = active” value is on record?
Answer: The value was inactive: 0.589%.

Question: With `C=COCCNC(=S)Nc1cccc(Cl)c1` as the molecule, how does the Potency read?
Answer: Its Potency is inconclusive: 35.5 µM [inhibitor, single point].

Question: Which Potency does the source give for `Cc1c(C(=O)OCc2ccc(F)cc2)sc2nc3n(c(=O)c12)CCC3` here?
Answer: The Potency was inconclusive: 6.31 µM [inhibitor, single point].

Question: With `Cn1cnc([N+](=O)[O-])c1S(=O)(=O)Nc1ccccc1` as the molecule, how does the “activity, negative = active” value read?
Answer: Its value is inactive: 2.18%.

Question: For `CCOc1cccc(C2c3c(oc4ccccc4c3=O)C(=O)N2c2nc(C)c(C(=O)OC)s2)c1` (centres undefined), which “activity, negative = active” value is on record?
Answer: The value was inactive: 10.3%.

Question: For `COc1cc(/C=C(/NC(=O)c2ccccc2)C(=O)N2CCOCC2)c([N+](=O)[O-])cc1OC`, which Potency is on record?
Answer: Its Potency is inconclusive: 3.55 µM [inhibitor, single point].

Question: With `CCC(C)c1ccccc1OCC(=O)NN1C(=O)c2ccccc2C1=O` (centres undefined) as the molecule, how does the Potency read?
Answer: The Potency was inconclusive: 7.08 µM [inhibitor, partial curve, poor fit].

Question: With `O=C(COC(=O)c1cn(-c2ccccc2)nc1-c1ccccc1)Nc1ncc(Cl)cc1Cl` as the molecule, how does the Potency read?
Answer: The Potency was inconclusive: 25.1 µM [inhibitor, single point].

Question: For `COc1cccc(NC(=O)CSc2nnc(-c3cccs3)n2C)c1`, which “activity, negative = active” value is on record?
Answer: The value was inactive: -0.195%.

Question: Which “activity, negative = active” value does the source give for `CC(=O)Oc1ccc2ccccc2c1C(NC(=O)C(C)C)c1cccc([N+](=O)[O-])c1` (centres undefined) here?
Answer: Its value is inactive: -0.852%.

Question: With `Cc1ccc(N=Nc2c(C)[nH]n(C(N)=S)c2=O)cc1` as the molecule, how does the Potency read?
Answer: Its Potency is inconclusive: 35.5 µM [inhibitor, partial curve, poor fit].

Question: Which Potency does the source give for `O=C(CCc1nnc(Cc2ccc(-c3ccccc3)cc2)o1)N1CCCC1` here?
Answer: Its Potency is inconclusive: 5.62 µM [inhibitor, single point].

Question: With `CC(C)=NNc1nc(-c2ccccc2)c(C)s1` as the molecule, how does the Potency read?
Answer: The Potency was inconclusive: 22.4 µM [inhibitor, single point].

Question: With `CCN(CC)Cc1oc(CO)cc(=O)c1O` as the molecule, how does the Potency read?
Answer: The Potency was inconclusive: 35.5 µM [inhibitor, single point].

Question: With `Cc1c(CCC(=O)NCc2ccc(F)cc2)c(=O)oc2cc(O)ccc12` as the molecule, how does the “activity, negative = active” value read?
Answer: The value was inactive: 6.28%.

Question: With `O=C1N/C(=C/c2cccn2-c2ccc(F)cc2)C(=O)N1Cc1ccccc1F` as the molecule, how does the Potency read?
Answer: Its Potency is inconclusive: 35.5 µM [inhibitor, single point].

Question: With `Clc1ccc(/C=C\c2nccc3c2[nH]c2ccccc23)cc1` as the molecule, how does the Potency read?
Answer: Its Potency is inconclusive: 17.8 µM [inhibitor, single point].

Question: With `COCCNC(=S)N/N=C(\C)c1ccc(Cl)c(Cl)c1Cl` as the molecule, how does the Potency read?
Answer: The Potency was inconclusive: 5.62 µM [inhibitor, single point].

Question: With `CC(C)N1CCc2c(sc(NC(=O)c3ccc(S(=O)(=O)N4CCCCC4C)cc3)c2C(N)=O)C1` (centres undefined) as the molecule, how does the Potency read?
Answer: Its Potency is inconclusive: 22.4 µM [inhibitor, single point].

Question: For `Brc1ccc(N=NNc2ccccc2)cc1`, which Potency is on record?
Answer: The Potency was inconclusive: 2.24 µM [inhibitor, full curve, poor fit].

Question: With `Cc1cc(C)cc(N(CC(=O)NC2CCCC2)C(=O)CCC(=O)Nc2nccs2)c1` as the molecule, how does the Potency read?
Answer: The Potency was inconclusive: 6.31 µM [inhibitor, partial curve, poor fit].

Question: For `COc1ccc(Cn2c(=O)[nH]c3cc(C(=O)N4CCN(Cc5ccccc5)CC4)ccc3c2=O)cc1`, which “activity, negative = active” value is on record?
Answer: Its value is inactive: 5.12%.

Question: With `CC1N(C)c2cc(NC(=O)c3cccs3)c(P(=O)(Nc3ccc([N+](=O)[O-])cc3)N3CCOCC3)cc2C1(C)C` (centres undefined) as the molecule, how does the “activity, negative = active” value read?
Answer: The value was inactive: 9.1%.

Question: For `COc1cc(C)c(Cl)cc1S(=O)(=O)N1CCCC1`, which “activity, negative = active” value is on record?
Answer: The value was inactive: 13.5%.

Question: Which Potency does the source give for `O=C(CSc1nncn1-c1ccccc1)c1c[nH]c2ccccc12` here?
Answer: The Potency was inconclusive: 35.5 µM [inhibitor, single point].

Question: With `CC(C)CC1Nc2ncnc(N3CCN(c4ccccn4)CC3)c2N(Cc2ccc(Br)cc2)C1=O` (centres undefined) as the molecule, how does the “activity, negative = active” value read?
Answer: Its value is inactive: 1.52%.

Question: For `Cc1ccc(SC(=O)c2c(C)noc2-c2cc(C)on2)cc1`, which Potency is on record?
Answer: Its Potency is inconclusive: 3.98 µM [inhibitor, partial curve, poor fit].

Question: For `O=C(Nc1cccc(-c2nc3cccnc3s2)c1)C1c2ccccc2Oc2ccccc21`, which Potency is on record?
Answer: The Potency was inconclusive: 8.91 µM [inhibitor, partial curve, poor fit].

Question: For `COc1cc(OC)cc(C(=O)NC(C(=O)N2CCc3ccccc3C2)C(C)C)c1` (centres undefined), which Potency is on record?
Answer: The Potency was inconclusive: 5.62 µM [inhibitor, single point].

Question: For `CCOC(=O)CNC(=O)C(Cc1ccccc1)NC(=O)OCc1ccccc1` (centres undefined), which “activity, negative = active” value is on record?
Answer: The value was inactive: 0.344%.

Question: Which “activity, negative = active” value does the source give for `Fc1cccc(NCc2ccccc2-c2nnc(-c3ccccc3Cl)o2)c1` here?
Answer: The value was inactive: -1.6%.

Question: For `Nc1nc(-c2ccccn2)nc(N)c1Cc1ccccc1F`, which Potency is on record?
Answer: Its Potency is inconclusive: 5.01 µM [inhibitor, full curve, poor fit].

Question: For `COC(=O)c1cc(N2CCN(C)CC2)nc2ccccc12`, which Potency is on record?
Answer: The Potency was inconclusive: 11.2 µM [inhibitor, partial curve, poor fit].

Question: For `Cc1c(C(=O)Nc2cccc(F)c2)sc2nc(-c3cc4ccccc4oc3=O)[nH]c(=O)c12`, which Potency is on record?
Answer: Its Potency is inconclusive: 22.4 µM [inhibitor, single point].

Question: With `C/C(=N\NC(=S)NCc1ccccc1)C1CCCCC1` as the molecule, how does the Potency read?
Answer: The Potency was inconclusive: 4.47 µM [inhibitor, single point].

Question: With `CCOC(=O)Cc1cnc(NC(=O)CSc2nc(C(C)C)cc(=O)[nH]2)s1` as the molecule, how does the Potency read?
Answer: Its Potency is inconclusive: 0.562 µM [inhibitor, full curve, poor fit].

Question: Which “activity, negative = active” value does the source give for `Cc1nc2c(c(SCC(=O)Nc3ccccc3C(F)(F)F)n1)CCC2` here?
Answer: The value was inactive: -1.64%.

Question: With `Cc1cccc2c(C(=O)Nc3ccc(Br)cc3)cc(-c3ccccn3)nc12` as the molecule, how does the Potency read?
Answer: Its Potency is inconclusive: 2.82 µM [inhibitor, single point].

Question: With `COc1ccccc1C(=O)NNC(=O)c1nn(Cc2ccccc2)c(=O)c2ccccc12` as the molecule, how does the Potency read?
Answer: The Potency was inconclusive: 6.31 µM [inhibitor, single point].

Question: For `COc1ccc2c(Cl)c(C(=O)NCCCn3ccnc3)sc2c1Cl`, which Potency is on record?
Answer: Its Potency is inconclusive: 2.82 µM [inhibitor, partial curve, poor fit].
